Laboratory results published in PubChem BioAssay AID493014 (National Center for Advancing Translational Sciences (NCATS), 2011).
About 170 (0.05%) of roughly 340,000 compounds were called active. Inconclusive means that the source gave no clear call. Such entries were picked first, then a sample of the others. Calls come from the whole dose curve; as a rule, active = well fitted inhibition curve with a large enough effect in the signal ratio, with a control signal flat (not every such curve was filed as active); inconclusive = small, poorly fitted or top-dose-only effect, or effect the other way, or a change in a side signal; inactive = flat fitted curve, though single readings scatter; the % refers to the signal ratio. Potencies of inconclusive entries are doubtful fits and often do not repeat.

Test: qHTS Assay to Find Inhibitors of Chronic Active B-Cell Receptor Signaling;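 for activity change, negative = inhibition: plate controls were basal doxycycline-induced cells for no effect and cells given 10 µM MG132 for full effect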
Details: ABC-DLBCL IkBa-CBG/CBR reporter, luminescence ratio (green luciferase fused to IkBa over red control in TMD8 lymphoma cells), 4 h; activity change, negative = inhibition: at 46.1 µM (top of the series)
How it was run: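 Doxycycline induced both beetle luciferases in TMD8 lymphoma cells; IKK-driven degradation limits the IkappaBalpha-fused green signal, while red luminescence normalises for cell number and nonspecific effects. Compounds tested up to 46 uM, 4 hrs.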
Potency is the fitted concentration of half-maximal effect.

| SMILES | activity change, negative = inhibition | Potency |
| --- | --- | --- |
| O=C(Nc1ccc(Cl)cc1)Nc1ccc(Cl)c(Cl)c1 | inconclusive: 4.1% | – |
| COc1ccc2[nH]c(=O)c3c(c2c1)OC(C)(C)C=C3 | – | inconclusive: 11.2 µM [rising, partial curve, poor fit] |
| CC(=O)Nc1ccc(C(=O)OCC(=O)Nc2ccc(Cl)cc2C(=O)c2ccccc2)cc1 | inconclusive: -6.45% | – |
| Cc1cc(C)c(N=Cc2c(O)[nH]c(=O)[nH]c2=O)c(C)c1 | inconclusive: 4.64% | – |
| COC(=O)C(O)(c1ccc(NC(=S)NC(=O)c2ccccc2)cc1)C(F)(F)F (configuration not stated) | – | inconclusive: 7.94 µM [falling, partial curve] |
| COc1ccc(-n2c(/C=C/c3ccc(O)c(OC)c3)nc3ccccc3c2=O)cc1 | – | inconclusive: 20 µM [falling, partial curve, poor fit] |
| COc1cccc(C(=O)C2CCCN(Cc3ccc(F)cc3)C2)c1 (configuration not stated) | inactive | – |
| O=C(c1ccc(CNS(=O)(=O)c2ccccc2)cc1)N1CCC2(CC1)OCCO2 | inconclusive: 0.206% | – |
| COc1cc(/C=C2\C(=O)NC(=O)N(c3ccccc3)C2=O)c([N+](=O)[O-])cc1OC | inactive | – |
| CCOc1ccc(C(=O)CCN2CCOCC2)cc1 | inconclusive: 13.4% | – |
| Cc1cc(OCC(=O)N[C@H](C(=O)O)c2ccccc2)c2c3c(c(=O)oc2c1)CCC3 | inactive | – |
| COc1cc(OC)cc(C(=O)Nc2ccc(N3CCN(C(=O)c4cccs4)CC3)cc2)c1 | – | inconclusive: 11.2 µM [falling, partial curve] |
| Cc1cccc(Cn2cccc(C(=O)Nc3nnc(C)s3)c2=O)c1 | inconclusive: 17.6% | – |
| O=C(N/N=C/c1c(O)n(C2CCCCC2)c(=S)[nH]c1=O)c1ccccc1 | – | inconclusive: 15.8 µM [falling, partial curve] |
| Cc1ccc(Sc2ccc(C=C3C(=O)N(C)C(=O)N(C)C3=O)o2)cc1 | inactive | – |
| C[C@@H]1C[C@H]2OC(=O)C3(CO3)[C@H]2[C@H](O)[C@]2(C)C(=O)C3OC3[C@@H]12 (some centres not stated) | – | inconclusive: 20 µM [falling, partial curve, poor fit] |
| C=C1[C@@H](C)[C@H]2[C@H](Cc3ccccc3)NC(=O)[C@]23OC(=O)/C=C/[C@H](O)CCC[C@@H](C)C/C=C/[C@H]3[C@@H]1O | inconclusive: 3.53% | – |
| O=c1c2ccccc2nc(/C=C\c2ccccc2[N+](=O)[O-])n1-c1ccccc1O | – | inconclusive: 12.6 µM [falling, partial curve] |
| Clc1ccc2c(c1)C(c1ccccc1Cl)=NCc1nnc(N3CCN(CCSc4ccccc4)CC3)n1-2 | inactive | – |
| Cc1ccccc1-n1c(O)c(/C=C2/C(c3ccccc3)=Nc3ccccc32)c(=O)[nH]c1=O | – | inconclusive: 7.31 µM [falling, partial curve, poor fit] |
| OCCN1CCN(CCCN2c3ccccc3Sc3ccc(C(F)(F)F)cc32)CC1 | – | inconclusive: 29.1 µM [falling, single point] |
| CN1CCC(O)(c2ccccc2)C2CCCC21 (configuration not stated) | inconclusive: -9.29% | – |
| CCCCn1c(O)c(C(CC)=NCCN2CCOCC2)c(=O)[nH]c1=O | inconclusive: 3.12% | – |
| CCN(CC)c1ccc(N=Cc2c(O)n(-c3ccc(Cl)cc3)c(=O)[nH]c2=O)cc1 | inactive | – |

Shown as tab-separated lines: 2 of the compounds above.
SMILES	activity change, negative = inhibition	Potency
C[C@@H]1C[C@H]2OC(=O)C3(CO3)[C@H]2[C@H](O)[C@]2(C)C(=O)C3OC3[C@@H]12 (some centres not stated)	–	inconclusive: 20 µM [falling, partial curve, poor fit]
CN1CCC(O)(c2ccccc2)C2CCCC21 (configuration not stated)	inconclusive: -9.29%	–

Following part

| SMILES | activity change, negative = inhibition | Potency |
| --- | --- | --- |
| Cn1cnc([N+](=O)[O-])c1Sc1ccc([N+](=O)[O-])cc1 | – | inconclusive: 20 µM [falling, single point] |
| FC(F)(F)c1ccc(CNCCc2ccc3c(c2)OCO3)cc1 | inactive | – |
| CC1(C)CSC(Nc2ccc(F)c(Cl)c2)=N1 | inactive | – |
| COc1ccc(OC(=O)Nc2ccccc2)cc1 | – | inconclusive: 20.6 µM [falling, single point] |
| Cc1cc2ccccn2c1C(C[N+](=O)[O-])c1c(F)cccc1Cl (configuration not stated) | – | inconclusive: 22.4 µM [falling, single point] |
| CCC(=NCc1ccco1)c1c(O)n(Cc2ccccc2)c(=O)[nH]c1=O | inconclusive: 7.78% | – |
| c1ccc(CN2CCNCC2)nc1 | inconclusive: 5.69% | – |
| Cc1cc(C)cc(N2C(=O)NC(=O)/C(=C\C=C\c3ccco3)C2=O)c1 | – | inconclusive: 18.4 µM [falling, single point] |
| O=C(Cn1cnc2sc3c(c2c1=O)CCCC3)NCCCC(=O)N1CCC2(CC1)OCCO2 | inconclusive: -5.88% | – |
| CCc1ccc(CN2CCN(Cc3ccc(SC)cc3)CC2)cc1 | inconclusive: 0.659% | – |
| Cc1c(N=Nc2c(O)[nH]c(=O)[nH]c2=O)c(=O)n(-c2ccccc2)n1C | inactive | – |
| O=C(Nc1ccc2c(c1)OCCO2)c1cccn(Cc2ccccc2)c1=O | – | inconclusive: 4.47 µM [rising, partial curve, poor fit] |
| COc1cc2c3c(c1OC)-c1cc(O)ccc1CC3NCC2 (configuration not stated) | inconclusive: 6.21% | – |
| COc1c(Cl)cc(C(=O)NN)cc1Cl | – | inconclusive: 0.794 µM [falling, full curve, poor fit] |
| O=C(Oc1ccc2cc(Br)ccc2c1)N1CCCCCC1 | inconclusive: -1.58% | – |
| CCOC(=O)c1c(NC(NC(=O)CF)C(Cl)(Cl)Cl)sc2c1CCCC2 (configuration not stated) | inconclusive: 10.3% | – |
| CCOC(=O)C1=C(C)OC(N)=C(C(=O)OCC)[C@@]12C(=O)N(CC(N)=O)c1ccccc12 | inconclusive: 1.65% | – |
| CN(C)c1nc(OCCNC(=O)COc2ccc(Cl)cc2Cl)nc(N2CCCCC2)n1 | inactive | – |
| N#CC1=C(SCC(=O)c2ccc(Br)cc2)NC2=C(C(=O)CCC2)C1c1ccco1 (configuration not stated) | – | inconclusive: 35.5 µM [falling, single point] |
| COc1ccc(C(=O)C2CCCN(C3CSCCSC3)C2)c(OC)c1 (configuration not stated) | inactive | – |
| CN1CCc2nc(SCc3cccc(Br)c3)c(C#N)cc2C1 | – | inconclusive: 25.1 µM [falling, partial curve, poor fit] |
| OC(Cc1ccccc1)(c1ccccc1)C1CN2CCC1CC2 (configuration not stated) | – | inconclusive: 18.4 µM [falling, partial curve, poor fit] |
| Cc1ccc(C)c(NC(=O)CSc2nnc([C@@H](N)Cc3c[nH]c4ccccc34)o2)c1 | inconclusive: -6.9% | – |
